This note sets out measurements from PMC11266601.

By UniProt entry, the sequences of proteins in these tests, tags left out.
UniProt O70145: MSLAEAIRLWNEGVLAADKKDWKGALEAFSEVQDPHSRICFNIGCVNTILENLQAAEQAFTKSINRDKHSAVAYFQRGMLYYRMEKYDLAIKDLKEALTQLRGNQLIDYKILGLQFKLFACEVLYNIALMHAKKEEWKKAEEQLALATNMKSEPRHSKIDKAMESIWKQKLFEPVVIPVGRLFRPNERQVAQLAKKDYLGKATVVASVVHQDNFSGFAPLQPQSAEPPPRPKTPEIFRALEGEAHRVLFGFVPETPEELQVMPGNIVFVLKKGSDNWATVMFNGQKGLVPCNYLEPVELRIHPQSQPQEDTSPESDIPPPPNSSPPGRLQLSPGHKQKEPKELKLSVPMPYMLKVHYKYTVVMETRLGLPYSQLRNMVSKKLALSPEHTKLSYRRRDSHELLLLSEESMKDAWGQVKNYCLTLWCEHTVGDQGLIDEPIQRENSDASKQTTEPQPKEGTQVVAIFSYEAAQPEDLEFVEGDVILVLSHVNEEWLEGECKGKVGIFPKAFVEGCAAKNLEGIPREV

The target in the assay is T1, NOX2/gp91^phox, endogenous in murine bone marrow-derived macrophages (mouse (endogenous in BMDMs)) (UniProt Q61093).
T1 sequence: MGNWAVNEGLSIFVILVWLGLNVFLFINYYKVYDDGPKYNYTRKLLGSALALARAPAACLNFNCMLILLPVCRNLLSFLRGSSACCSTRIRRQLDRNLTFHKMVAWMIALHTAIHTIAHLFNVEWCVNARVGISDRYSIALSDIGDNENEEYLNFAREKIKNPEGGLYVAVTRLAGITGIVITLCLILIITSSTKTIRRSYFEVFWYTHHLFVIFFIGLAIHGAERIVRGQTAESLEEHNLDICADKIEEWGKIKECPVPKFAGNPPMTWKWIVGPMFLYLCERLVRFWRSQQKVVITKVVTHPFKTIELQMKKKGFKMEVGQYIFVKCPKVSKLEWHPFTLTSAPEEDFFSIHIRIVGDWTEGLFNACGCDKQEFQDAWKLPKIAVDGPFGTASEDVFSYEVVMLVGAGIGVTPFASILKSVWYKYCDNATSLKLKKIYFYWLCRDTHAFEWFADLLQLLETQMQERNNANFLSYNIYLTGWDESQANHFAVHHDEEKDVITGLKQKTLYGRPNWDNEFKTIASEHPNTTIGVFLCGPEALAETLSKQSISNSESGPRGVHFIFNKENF
Nature of the assay: co-IP; lysates (RIPA) of BMDMs infected for 2 h with V. vulnificus strains (EF, EF::RDTND-RID, EF::RDTND-RIDC/A, EF::RDTNDE/Q-RIDC/A, EF::RDTND4mt-RIDC/A), anti-gp91^phox antibody and protein A/G agarose, immunoblot. For orientation: A western blot detects proteins with antibodies after separation by electrophoresis.

These are yes or no findings as the source states them, for the method shown. In cells and extracts the contact can be indirect. Some results given as binding are weak or reduced against the parent protein; the word gives no strength.

For the molecule “p67^phox, endogenous in murine bone marrow-derived macrophages (from UniProt O70145 1-525)”, the binding result was “binds”.

B1: p47^phox, endogenous in murine bone marrow-derived macrophages (protein, UniProt Q09014 1-390)
chain: MGDTFIRHIALLGFEKRFIPSQHYVYMFLVKWQDLSEKVVYRKFTEIYEFHKMLKEMFPIEAGEIHTENRVIPHLPAPRWFDGQRAAESRQGTLTEYFNGLMGLPVKISRCPHLLDFFKVRPDDLKLPTDSQAKKPETYLVPKDGKNNVADITGPIILQTYRAIADYEKSSGTEMTVATGDVVDVVEKSESGWWFCQMKTKRGWVPASYLEPLDSPDEAEDPDPNYAGEPYVTIKAYAAVEEDEMSLSEGEAIEVIHKLLDGWWVVRKGDITGYFPSMYLQKAGEEITQAQRQIRGRGAPPRRSTIRNAQSIHQRSRKRLSQDTYRRNSVRFLQQRRRPGRPGPLSTDGTKDNPSTPRVKPQPAVPPRPSSDLILHRCTESTKRKLTSAV
Consider B1, for which the binding result was “binds”.
